PubChem BioAssay AID1259254 – NCATS – 2017
Test: 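Finding genes that stop cells copying their DNA twice in one cycle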 (primary screen). Cell system: human HCT116 colorectal cancer cells. Knock-down reagent: single siRNA against human genes. Time to read-out: 3 days. Measured: 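Imaged Hoechst DNA stain sorts each cell into a cycle phase by DNA amount; per plate, G2 fraction set to 0% for non-targeting and 100% for GMNN siRNA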. Scale: G2 robust z-score and G2 cells, % of GMNN control: higher = more G2 cells, more excess DNA replication. Rule for the call: 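An siRNA counts as active if its G2 robust z-score lies at least 5 MADs above the screen median; here such calls match roughly 38% of GMNN control or more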.
In all, the deposit lists about 59,000 reagents; below is an unselected part. About 1,550 of all reagents (2.6%) count as active. 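G2 share is only a proxy for re-replication; each gene was hit by three separate siRNAs, and active genes were retested.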 Unmarked entries are inactive. The numbers tell different reagents against one gene apart. Not all columns of the deposit are shown. The record does not give: the amount of reagent.

Gene	siRNA no.	G2 robust z-score	G2 cells, % of GMNN control
MLYCD	1	0.512	6.57
MLYCD	2	-1.21	-5.55
MLYCD	3	-0.934	-3.61
SOX9-AS1	1	0.649	7.53
SOX9-AS1	2	-0.689	-1.88
SOX9-AS1	3	-1.09	-4.69
SOX9-AS1	4	2.97	23.9
SOX9-AS1	5	-0.573	-1.07
SOX9-AS1	6	-0.505	-0.582
UNC13C	1	-0.862	-3.1
UNC13C	2	0.352	5.44
UNC13C	3	0.676	7.72
NUDT13	1	-1.46	-7.32
NUDT13	2	-1.33	-6.39
NUDT13	3	0.591	7.12
UTP14C	1	-1.12	-4.9
UTP14C	2	-0.28	1
UTP14C	3	-0.746	-2.28
VPS8	1	0.269	4.86
VPS8	2	0.271	4.88
VPS8	3	-0.859	-3.08
MITF	1	-1.22	-5.64
MITF	2	0.332	5.31
MITF	3	0.998	9.99
ZDHHC20	1	-0.362	0.419
ZDHHC20	2	4.17	32.3
ZDHHC20	3	-0.705	-1.99
ST6GAL1	1	4.33	33.4
ST6GAL1	2	1.81	15.7
ST6GAL1	3	-0.054	2.59

6 neighbouring entries already listed, quoted:
Gene	siRNA no.	G2 robust z-score	G2 cells, % of GMNN control
VPS8	2	0.271	4.88
VPS8	3	-0.859	-3.08
MITF	1	-1.22	-5.64
MITF	2	0.332	5.31
MITF	3	0.998	9.99
ZDHHC20	1	-0.362	0.419

The list goes on.
Gene	siRNA no.	G2 robust z-score	G2 cells, % of GMNN control
IRAK1	1	-0.039	2.69
IRAK1	2	-1.07	-4.59
IRAK1	3	-0.0747	2.44
CHAD	1	1.74	15.2
CHAD	2	-0.443	-0.146
CHAD	3	-1.05	-4.4
SPECC1	1	-0.891	-3.3
SPECC1	2	-0.444	-0.158
SPECC1	3	0.177	4.22
LINC01116	1	0.701	7.9
LINC01116	2	0.851	8.95
LINC01116	3	1.09	10.7
FAM230A	1	0.215	4.48
FAM230A	2	0.159	4.09
FAM230A	3	-0.235	1.31
MTMR3	1	1.71	15
MTMR3	2	0.324	5.25
MTMR3	3	-0.613	-1.35
OR2L8	1	1.28	12
OR2L8	2	-0.89	-3.3
OR2L8	3	1.49	13.4
PDE10A	1	-0.137	2
PDE10A	2	2.02	17.2
PDE10A	3	1.6	14.2
FAM186B	1	1.24	11.7
FAM186B	2	-1.1	-4.75
FAM186B	3	-0.762	-2.4
HMGB1P22	1	-0.464	-0.295
HMGB1P22	2	0.811	8.67
HMGB1P22	3	-0.771	-2.46
EMC3	1	5.7 (active)	43.1
EMC3	2	-0.16	1.84
EMC3	3	0.0196	3.11
MOAP1	1	-0.695	-1.93
MOAP1	2	-0.487	-0.458
MOAP1	3	-0.117	2.14
FAT4	1	-1.16	-5.22
FAT4	2	-0.509	-0.615
FAT4	3	-0.593	-1.2
